According to the supplement of paper PMC7666118:
This is one part of the list.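 The calls were made as follows: active = dose-dependent thermal stabilisation significant by F-test of dose-response against flat model at 10% FDR; inactive = not significant.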

Chains of the proteins cited; added tags and fusions are not shown. Lines headed by an entry give the natural chain unless they say otherwise; changes in a name come on top.
UniProt Q9UK45: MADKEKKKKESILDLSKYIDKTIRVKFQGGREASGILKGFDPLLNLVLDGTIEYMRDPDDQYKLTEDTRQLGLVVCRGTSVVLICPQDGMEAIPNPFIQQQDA
UniProt Q9UBK8: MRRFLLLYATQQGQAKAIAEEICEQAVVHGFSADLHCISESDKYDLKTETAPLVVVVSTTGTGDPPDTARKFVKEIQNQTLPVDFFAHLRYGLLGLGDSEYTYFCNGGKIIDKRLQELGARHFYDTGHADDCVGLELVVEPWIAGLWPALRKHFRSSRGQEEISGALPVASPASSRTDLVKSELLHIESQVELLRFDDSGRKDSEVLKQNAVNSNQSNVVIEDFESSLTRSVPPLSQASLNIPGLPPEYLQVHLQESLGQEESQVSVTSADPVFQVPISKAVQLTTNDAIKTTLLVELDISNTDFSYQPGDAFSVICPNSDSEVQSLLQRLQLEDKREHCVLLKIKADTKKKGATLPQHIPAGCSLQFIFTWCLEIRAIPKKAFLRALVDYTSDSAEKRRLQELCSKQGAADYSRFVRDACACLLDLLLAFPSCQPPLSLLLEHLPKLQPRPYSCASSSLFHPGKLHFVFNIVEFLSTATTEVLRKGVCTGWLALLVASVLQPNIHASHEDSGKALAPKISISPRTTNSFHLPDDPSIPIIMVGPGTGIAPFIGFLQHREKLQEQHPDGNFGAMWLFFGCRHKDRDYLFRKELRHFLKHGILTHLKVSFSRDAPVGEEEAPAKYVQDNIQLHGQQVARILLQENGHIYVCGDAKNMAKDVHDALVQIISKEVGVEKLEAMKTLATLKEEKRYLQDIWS
UniProt Q9BQP7: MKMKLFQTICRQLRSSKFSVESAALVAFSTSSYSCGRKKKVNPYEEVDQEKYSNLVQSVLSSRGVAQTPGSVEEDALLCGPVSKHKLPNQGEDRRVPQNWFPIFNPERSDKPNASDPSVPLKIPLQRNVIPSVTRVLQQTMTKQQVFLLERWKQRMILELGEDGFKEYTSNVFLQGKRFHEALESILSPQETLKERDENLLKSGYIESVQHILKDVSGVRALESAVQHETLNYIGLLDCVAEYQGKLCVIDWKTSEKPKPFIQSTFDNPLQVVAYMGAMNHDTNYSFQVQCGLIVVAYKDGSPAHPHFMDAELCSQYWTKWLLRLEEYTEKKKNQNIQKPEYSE
UniProt Q96GX5: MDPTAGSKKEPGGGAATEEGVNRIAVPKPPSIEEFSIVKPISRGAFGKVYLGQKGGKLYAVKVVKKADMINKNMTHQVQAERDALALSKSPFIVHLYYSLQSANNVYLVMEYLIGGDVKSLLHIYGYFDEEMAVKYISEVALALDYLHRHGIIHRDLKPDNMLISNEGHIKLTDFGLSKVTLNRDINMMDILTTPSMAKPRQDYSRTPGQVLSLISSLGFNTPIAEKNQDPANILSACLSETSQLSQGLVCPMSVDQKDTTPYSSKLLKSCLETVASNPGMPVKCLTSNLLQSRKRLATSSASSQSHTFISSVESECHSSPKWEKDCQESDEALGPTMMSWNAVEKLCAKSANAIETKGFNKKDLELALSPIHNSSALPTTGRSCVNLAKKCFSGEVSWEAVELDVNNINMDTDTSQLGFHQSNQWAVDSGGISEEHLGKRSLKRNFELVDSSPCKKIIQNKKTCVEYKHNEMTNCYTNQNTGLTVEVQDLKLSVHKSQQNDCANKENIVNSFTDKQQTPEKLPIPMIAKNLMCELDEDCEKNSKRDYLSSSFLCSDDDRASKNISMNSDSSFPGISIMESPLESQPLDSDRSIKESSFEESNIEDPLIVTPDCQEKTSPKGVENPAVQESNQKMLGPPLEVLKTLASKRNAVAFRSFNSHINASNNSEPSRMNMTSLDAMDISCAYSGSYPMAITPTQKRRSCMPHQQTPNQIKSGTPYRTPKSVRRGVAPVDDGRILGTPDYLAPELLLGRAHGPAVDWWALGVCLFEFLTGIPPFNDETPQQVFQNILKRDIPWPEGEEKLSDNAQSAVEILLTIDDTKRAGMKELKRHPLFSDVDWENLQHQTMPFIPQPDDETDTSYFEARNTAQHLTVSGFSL
UniProt Q8WXG6, whole entry, looked up: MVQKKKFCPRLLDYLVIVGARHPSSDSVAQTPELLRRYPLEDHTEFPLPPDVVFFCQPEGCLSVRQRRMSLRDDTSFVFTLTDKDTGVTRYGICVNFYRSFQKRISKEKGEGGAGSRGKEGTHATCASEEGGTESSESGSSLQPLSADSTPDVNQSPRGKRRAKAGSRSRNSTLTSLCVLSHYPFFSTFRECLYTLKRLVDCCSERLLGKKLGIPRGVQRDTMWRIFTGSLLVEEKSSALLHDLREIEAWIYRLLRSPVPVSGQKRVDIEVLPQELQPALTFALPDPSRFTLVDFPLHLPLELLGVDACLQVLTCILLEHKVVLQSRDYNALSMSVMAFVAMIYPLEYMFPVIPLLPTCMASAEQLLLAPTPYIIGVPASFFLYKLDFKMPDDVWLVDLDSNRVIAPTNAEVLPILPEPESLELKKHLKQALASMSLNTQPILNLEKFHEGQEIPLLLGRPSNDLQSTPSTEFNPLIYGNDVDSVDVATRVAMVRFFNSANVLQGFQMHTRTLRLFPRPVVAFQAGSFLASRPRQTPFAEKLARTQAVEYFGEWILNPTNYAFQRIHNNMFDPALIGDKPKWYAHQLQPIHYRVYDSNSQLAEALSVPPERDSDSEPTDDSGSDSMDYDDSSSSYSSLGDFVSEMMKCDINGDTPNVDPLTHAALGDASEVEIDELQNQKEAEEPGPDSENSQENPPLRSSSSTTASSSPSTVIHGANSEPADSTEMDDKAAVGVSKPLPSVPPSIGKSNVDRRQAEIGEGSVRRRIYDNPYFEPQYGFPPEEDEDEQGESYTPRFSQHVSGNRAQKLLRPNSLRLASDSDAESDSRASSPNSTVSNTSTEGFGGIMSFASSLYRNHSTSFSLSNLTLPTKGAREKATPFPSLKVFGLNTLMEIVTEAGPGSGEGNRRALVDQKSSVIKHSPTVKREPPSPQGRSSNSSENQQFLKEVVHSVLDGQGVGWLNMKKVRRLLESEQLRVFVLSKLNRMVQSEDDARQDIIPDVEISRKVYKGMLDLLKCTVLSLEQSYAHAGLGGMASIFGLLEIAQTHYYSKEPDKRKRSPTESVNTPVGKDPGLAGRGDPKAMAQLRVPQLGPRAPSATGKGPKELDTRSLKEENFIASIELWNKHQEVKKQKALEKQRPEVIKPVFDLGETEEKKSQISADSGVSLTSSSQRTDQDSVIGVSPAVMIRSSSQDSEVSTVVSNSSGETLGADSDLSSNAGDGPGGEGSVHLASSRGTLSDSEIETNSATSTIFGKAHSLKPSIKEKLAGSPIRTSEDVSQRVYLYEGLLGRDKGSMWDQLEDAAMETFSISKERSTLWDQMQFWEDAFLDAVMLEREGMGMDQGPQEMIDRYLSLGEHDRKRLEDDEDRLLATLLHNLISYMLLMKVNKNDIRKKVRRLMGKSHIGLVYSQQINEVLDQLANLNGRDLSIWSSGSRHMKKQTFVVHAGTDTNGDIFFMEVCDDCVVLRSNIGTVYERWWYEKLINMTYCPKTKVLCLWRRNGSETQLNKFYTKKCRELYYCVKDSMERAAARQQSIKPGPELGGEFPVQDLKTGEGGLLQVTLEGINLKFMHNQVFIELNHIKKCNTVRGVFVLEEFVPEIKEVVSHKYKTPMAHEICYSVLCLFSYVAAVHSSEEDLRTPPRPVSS
UniProt Q8WV92, whole entry: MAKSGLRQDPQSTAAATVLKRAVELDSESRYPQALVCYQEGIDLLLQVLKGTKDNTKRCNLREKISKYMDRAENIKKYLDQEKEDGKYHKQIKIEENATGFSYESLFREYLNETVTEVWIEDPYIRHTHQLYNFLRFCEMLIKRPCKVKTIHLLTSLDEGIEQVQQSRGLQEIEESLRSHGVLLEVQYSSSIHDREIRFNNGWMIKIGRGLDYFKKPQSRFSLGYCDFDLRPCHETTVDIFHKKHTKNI
UniProt Q9UFC0: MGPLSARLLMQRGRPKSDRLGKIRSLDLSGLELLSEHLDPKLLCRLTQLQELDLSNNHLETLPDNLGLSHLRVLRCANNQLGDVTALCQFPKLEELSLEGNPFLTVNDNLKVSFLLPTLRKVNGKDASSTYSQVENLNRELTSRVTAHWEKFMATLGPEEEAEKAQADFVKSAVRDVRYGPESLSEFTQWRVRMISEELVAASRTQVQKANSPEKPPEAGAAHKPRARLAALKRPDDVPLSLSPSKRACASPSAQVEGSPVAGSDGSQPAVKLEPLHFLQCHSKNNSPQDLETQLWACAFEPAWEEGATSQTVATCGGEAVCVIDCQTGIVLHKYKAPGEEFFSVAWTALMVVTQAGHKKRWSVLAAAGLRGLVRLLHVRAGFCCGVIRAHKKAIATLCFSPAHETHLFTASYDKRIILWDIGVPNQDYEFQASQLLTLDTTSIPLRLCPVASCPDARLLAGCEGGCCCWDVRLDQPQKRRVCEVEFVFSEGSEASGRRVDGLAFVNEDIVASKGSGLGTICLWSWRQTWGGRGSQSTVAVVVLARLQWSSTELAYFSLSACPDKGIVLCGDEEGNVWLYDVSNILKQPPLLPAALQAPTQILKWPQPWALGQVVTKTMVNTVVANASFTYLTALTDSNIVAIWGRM
UniProt Q16644, whole entry, looked up: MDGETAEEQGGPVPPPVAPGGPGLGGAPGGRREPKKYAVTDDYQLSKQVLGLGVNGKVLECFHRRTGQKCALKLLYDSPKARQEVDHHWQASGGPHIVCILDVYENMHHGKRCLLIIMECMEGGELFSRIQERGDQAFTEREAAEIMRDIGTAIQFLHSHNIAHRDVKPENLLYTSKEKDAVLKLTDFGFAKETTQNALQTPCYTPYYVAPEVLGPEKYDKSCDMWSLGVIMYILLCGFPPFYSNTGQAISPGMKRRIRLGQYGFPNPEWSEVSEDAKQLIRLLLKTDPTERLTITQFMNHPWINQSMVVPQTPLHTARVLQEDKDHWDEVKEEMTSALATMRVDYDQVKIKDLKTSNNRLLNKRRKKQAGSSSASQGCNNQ
UniProt Q5VWZ2: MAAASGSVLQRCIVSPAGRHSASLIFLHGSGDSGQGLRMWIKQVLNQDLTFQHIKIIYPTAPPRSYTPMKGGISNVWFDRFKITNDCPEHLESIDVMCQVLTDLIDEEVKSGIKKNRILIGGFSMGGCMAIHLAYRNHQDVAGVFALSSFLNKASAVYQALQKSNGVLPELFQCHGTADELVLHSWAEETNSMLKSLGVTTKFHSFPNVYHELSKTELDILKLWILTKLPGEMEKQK
UniProt P25205: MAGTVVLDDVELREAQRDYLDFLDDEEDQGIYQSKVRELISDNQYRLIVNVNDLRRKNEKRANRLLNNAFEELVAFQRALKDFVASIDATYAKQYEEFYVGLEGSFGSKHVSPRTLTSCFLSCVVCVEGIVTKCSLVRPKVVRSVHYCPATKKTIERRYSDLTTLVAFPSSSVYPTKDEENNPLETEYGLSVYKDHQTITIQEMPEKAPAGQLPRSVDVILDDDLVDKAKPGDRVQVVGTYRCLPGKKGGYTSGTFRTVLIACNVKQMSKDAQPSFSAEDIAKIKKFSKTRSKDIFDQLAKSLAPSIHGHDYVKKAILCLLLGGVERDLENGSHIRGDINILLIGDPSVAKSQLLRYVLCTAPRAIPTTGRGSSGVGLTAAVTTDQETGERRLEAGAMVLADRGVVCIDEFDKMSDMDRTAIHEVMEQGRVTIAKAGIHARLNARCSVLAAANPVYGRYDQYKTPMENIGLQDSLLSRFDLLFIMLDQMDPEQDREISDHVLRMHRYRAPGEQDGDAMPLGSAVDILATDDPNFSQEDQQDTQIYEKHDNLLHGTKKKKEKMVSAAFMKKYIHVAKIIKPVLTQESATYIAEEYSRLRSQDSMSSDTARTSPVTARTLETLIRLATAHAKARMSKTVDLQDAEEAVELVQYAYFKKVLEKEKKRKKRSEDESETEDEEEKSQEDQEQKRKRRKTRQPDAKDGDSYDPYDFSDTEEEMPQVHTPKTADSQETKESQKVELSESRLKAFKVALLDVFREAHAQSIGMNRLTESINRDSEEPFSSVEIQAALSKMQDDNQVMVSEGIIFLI
UniProt P56270: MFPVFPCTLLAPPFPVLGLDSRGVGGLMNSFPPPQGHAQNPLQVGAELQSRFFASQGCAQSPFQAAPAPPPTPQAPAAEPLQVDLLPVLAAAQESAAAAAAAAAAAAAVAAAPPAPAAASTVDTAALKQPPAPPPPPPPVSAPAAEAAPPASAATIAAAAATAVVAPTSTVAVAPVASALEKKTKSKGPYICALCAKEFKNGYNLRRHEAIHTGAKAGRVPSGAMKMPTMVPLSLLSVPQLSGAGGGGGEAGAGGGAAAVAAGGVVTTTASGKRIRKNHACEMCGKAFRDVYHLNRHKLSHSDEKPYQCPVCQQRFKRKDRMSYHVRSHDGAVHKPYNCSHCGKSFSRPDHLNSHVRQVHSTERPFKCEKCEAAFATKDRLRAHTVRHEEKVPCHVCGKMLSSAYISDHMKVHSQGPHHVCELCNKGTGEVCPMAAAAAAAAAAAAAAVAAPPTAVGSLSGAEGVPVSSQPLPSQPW

What follows are targets tested with Nc1nc2c(ncn2[C@@H]2O[C@H](COP(=O)(O)OP(=O)(O)OP(=O)(O)O)[C@@H](O)[C@H]2O)c(=O)[nH]1 (assay: dose-dependent thermal stabilisation call (2D-TPP, DLPTP, 10% FDR) (binary (1 = stabilised)); higher = stabilised by the compound). Conditions: system: Jurkat gel-filtered lysate; concentration range 1-500 µM.
Method: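 2D thermal proteome profiling in gel-filtered Jurkat E6.1 lysate (2 mg/ml) treated with NaGTP (0, 1, 10, 100, 500 uM) for 10 min at room temperature, then heated 3 min at one of 12 temperatures (42-63.9 C). Soluble protein was quantified by TMT10 MS. The value is the DLPTP call of the paper: dose-dependent thermal stabilisation over all temperatures at 10% FDR (F-test of a dose-response against a flat model); one experiment, one call per tested protein.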
LSM7 (UniProt Q9UK45) was tested, and the “dose-dependent thermal stabilisation call” value was inactive: 0. With MTRR (UniProt Q9UBK8) the “dose-dependent thermal stabilisation call” value was inactive: 0. With MTA2 (UniProt O94776) the “dose-dependent thermal stabilisation call” value was inactive: 0. In the case of LRRC40 (UniProt Q9H9A6), the “dose-dependent thermal stabilisation call” value is reported as active: 1. For MRGBP (UniProt Q9NV56), the “dose-dependent thermal stabilisation call” value was inactive: 0. In the case of MSANTD2 (UniProt Q6P1R3), the “dose-dependent thermal stabilisation call” value is reported as inactive: 0. For LSM14A (UniProt Q8ND56), the “dose-dependent thermal stabilisation call” value was inactive: 0. In the case of MON1B (UniProt Q7L1V2), the “dose-dependent thermal stabilisation call” value is reported as inactive: 0. With MTMR3 (UniProt Q13615) the “dose-dependent thermal stabilisation call” value was inactive: 0. For MGME1 (UniProt Q9BQP7), the “dose-dependent thermal stabilisation call” value was inactive: 0. With MASTL (UniProt Q96GX5) the “dose-dependent thermal stabilisation call” value was inactive: 0. For LRRC59 (UniProt Q96AG4), the “dose-dependent thermal stabilisation call” value was inactive: 0. With MED15 (UniProt Q96RN5) the “dose-dependent thermal stabilisation call” value was inactive: 0. MAN2C1 (UniProt Q9NTJ4) was tested, and the “dose-dependent thermal stabilisation call” value was inactive: 0. For LUC7L (UniProt Q9NQ29), the “dose-dependent thermal stabilisation call” value was active: 1. For METTL25 (UniProt Q8N6Q8), the “dose-dependent thermal stabilisation call” value was inactive: 0. For MPPED2 (UniProt Q15777), the “dose-dependent thermal stabilisation call” value was inactive: 0. For MADD (UniProt Q8WXG6), the “dose-dependent thermal stabilisation call” value was inactive: 0. With MITD1 (UniProt Q8WV92) the “dose-dependent thermal stabilisation call” value was active: 1. For LSM4 (UniProt Q9Y4Z0), the “dose-dependent thermal stabilisation call” value was inactive: 0. In the case of N4BP1 (UniProt O75113), the “dose-dependent thermal stabilisation call” value is reported as inactive: 0. MAN2B1 (UniProt O00754) was tested, and the “dose-dependent thermal stabilisation call” value was inactive: 0. For LRRFIP2 (UniProt Q9Y608), the “dose-dependent thermal stabilisation call” value was inactive: 0. In the case of MFAP1 (UniProt P55081), the “dose-dependent thermal stabilisation call” value is reported as inactive: 0. MTA1 (UniProt Q13330) was tested, and the “dose-dependent thermal stabilisation call” value was inactive: 0. In the case of MVB12A (UniProt Q96EY5), the “dose-dependent thermal stabilisation call” value is reported as active: 1. With MCAT (UniProt Q8IVS2) the “dose-dependent thermal stabilisation call” value was inactive: 0. In the case of METTL14 (UniProt Q9HCE5), the “dose-dependent thermal stabilisation call” value is reported as inactive: 0. MTMR14 (UniProt Q8NCE2) was tested, and the “dose-dependent thermal stabilisation call” value was inactive: 0. With MTCL1 (UniProt Q9Y4B5) the “dose-dependent thermal stabilisation call” value was inactive: 0. For LRWD1 (UniProt Q9UFC0), the “dose-dependent thermal stabilisation call” value was active: 1. For MAP2K7 (UniProt O14733), the “dose-dependent thermal stabilisation call” value was active: 1. MYBL2 (UniProt P10244) was tested, and the “dose-dependent thermal stabilisation call” value was inactive: 0. With MAPKAPK3 (UniProt Q16644) the “dose-dependent thermal stabilisation call” value was inactive: 0. MTDH (UniProt Q86UE4) was tested, and the “dose-dependent thermal stabilisation call” value was inactive: 0. In the case of MAP4 (UniProt P27816), the “dose-dependent thermal stabilisation call” value is reported as inactive: 0. In the case of MED18 (UniProt Q9BUE0), the “dose-dependent thermal stabilisation call” value is reported as inactive: 0. For LYPLAL1 (UniProt Q5VWZ2), the “dose-dependent thermal stabilisation call” value was inactive: 0. For MCM3 (UniProt P25205), the “dose-dependent thermal stabilisation call” value was inactive: 0. In the case of MAZ (UniProt P56270), the “dose-dependent thermal stabilisation call” value is reported as inactive: 0.
